Data taken from article doi:10.1101/2021.09.21.461216 (bioRxiv, 2021).

Molecular target: LexA DNA binding domain Ras with the cysteine of the CAAX box mutated (UniProt P01112)
Assay: two-hybrid

binding: no binding
B1: BRI3BP domain identified in the two-hybrid assay, overexpressed in mammalian cells (domain or fragment, UniProt Q8BXV2 85-253, looked up)
chain: RFVQGVDMFLETLWKVWMELLEVLGLDVSNLSQYFSPASVSNSPTRALVLVGVVLLAYWFLSLTLGFTFSLLHLVFGRFFWLVRVILFSMSCVYILHKYEGEPEHAVLPLCVVVAIYFMTGPMGYWRGSPGGLCSPSVEEKLEHLENQVRLLNIRLNRVLENLDRSKDK

Results are given in words; binding and its absence hold for the method and conditions named.
